Source: patent US6025179
For at least one entry, the source does not settle the construct or the ends of the probe.

Tested on: SnaBI methylase (M.SnaBI) (Sphaerotilus natans)
Experiment: activity in cells
Conditions: in vivo methylation completely protects pSnaBI-2 against SnaBI digestion; protein in cells; only the site is given

GTACGTAC (double strand) [SnaBI linker in pSnaBI-2 (two sites in pUC19)]
activity on this sequence: active
